{"sequences": {"note": "The chains behind the UniProt entries cited, without tags or fusion partners. Residues count along the entry.", "UniProt Q16602, residues 23-461": "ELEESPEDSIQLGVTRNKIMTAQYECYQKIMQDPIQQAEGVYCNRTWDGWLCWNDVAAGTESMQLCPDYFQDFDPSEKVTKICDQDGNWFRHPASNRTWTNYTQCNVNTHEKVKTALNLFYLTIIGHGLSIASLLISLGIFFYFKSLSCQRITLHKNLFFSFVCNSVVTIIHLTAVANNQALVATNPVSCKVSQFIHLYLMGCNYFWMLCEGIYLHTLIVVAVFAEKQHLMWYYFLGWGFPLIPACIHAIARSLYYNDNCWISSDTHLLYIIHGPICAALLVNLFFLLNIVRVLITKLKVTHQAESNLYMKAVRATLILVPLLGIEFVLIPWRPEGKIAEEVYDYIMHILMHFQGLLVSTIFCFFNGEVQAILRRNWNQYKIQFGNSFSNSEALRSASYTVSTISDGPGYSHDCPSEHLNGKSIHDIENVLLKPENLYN", "UniProt Q9Y5S2": "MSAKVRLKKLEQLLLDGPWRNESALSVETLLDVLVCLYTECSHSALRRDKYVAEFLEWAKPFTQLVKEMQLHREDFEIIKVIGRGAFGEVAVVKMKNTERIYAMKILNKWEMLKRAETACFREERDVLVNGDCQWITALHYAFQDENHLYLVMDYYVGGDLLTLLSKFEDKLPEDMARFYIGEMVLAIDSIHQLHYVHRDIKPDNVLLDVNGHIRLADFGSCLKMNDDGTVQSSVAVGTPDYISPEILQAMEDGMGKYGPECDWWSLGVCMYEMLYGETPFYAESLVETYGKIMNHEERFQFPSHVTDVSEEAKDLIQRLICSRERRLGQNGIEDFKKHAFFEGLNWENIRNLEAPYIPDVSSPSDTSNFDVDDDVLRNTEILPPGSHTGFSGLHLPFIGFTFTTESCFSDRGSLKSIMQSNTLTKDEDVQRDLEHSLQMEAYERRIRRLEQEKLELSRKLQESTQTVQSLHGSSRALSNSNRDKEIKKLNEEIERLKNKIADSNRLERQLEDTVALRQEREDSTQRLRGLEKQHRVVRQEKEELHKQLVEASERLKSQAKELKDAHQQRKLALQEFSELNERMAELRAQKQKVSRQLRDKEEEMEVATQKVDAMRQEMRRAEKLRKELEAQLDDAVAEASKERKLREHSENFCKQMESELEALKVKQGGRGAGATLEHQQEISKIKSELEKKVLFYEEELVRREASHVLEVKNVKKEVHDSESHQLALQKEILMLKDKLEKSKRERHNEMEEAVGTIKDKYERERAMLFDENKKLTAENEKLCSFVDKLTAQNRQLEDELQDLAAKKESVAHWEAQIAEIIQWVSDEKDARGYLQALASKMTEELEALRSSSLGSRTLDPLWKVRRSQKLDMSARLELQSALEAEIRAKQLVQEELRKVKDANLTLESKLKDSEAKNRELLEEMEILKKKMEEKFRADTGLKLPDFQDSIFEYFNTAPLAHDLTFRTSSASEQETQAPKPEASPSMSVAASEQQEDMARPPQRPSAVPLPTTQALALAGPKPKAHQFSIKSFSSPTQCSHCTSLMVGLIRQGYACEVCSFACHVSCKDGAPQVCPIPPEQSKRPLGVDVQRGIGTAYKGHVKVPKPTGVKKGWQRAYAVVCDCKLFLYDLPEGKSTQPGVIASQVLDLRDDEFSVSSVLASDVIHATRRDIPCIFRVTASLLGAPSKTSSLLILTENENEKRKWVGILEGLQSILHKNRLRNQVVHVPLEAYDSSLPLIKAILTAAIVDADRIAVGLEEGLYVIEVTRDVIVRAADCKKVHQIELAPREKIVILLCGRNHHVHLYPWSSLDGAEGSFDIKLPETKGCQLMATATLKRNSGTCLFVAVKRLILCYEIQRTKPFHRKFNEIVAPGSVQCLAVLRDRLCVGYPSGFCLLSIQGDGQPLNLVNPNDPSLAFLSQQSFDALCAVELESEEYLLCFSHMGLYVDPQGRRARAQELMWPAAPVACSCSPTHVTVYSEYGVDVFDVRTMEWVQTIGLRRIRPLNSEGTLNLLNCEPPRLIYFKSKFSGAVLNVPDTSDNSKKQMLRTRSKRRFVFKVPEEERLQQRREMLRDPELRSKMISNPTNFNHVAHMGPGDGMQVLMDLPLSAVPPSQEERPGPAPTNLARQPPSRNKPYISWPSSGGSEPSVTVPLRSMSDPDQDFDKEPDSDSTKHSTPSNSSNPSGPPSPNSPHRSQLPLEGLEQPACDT", "UniProt Q13557": "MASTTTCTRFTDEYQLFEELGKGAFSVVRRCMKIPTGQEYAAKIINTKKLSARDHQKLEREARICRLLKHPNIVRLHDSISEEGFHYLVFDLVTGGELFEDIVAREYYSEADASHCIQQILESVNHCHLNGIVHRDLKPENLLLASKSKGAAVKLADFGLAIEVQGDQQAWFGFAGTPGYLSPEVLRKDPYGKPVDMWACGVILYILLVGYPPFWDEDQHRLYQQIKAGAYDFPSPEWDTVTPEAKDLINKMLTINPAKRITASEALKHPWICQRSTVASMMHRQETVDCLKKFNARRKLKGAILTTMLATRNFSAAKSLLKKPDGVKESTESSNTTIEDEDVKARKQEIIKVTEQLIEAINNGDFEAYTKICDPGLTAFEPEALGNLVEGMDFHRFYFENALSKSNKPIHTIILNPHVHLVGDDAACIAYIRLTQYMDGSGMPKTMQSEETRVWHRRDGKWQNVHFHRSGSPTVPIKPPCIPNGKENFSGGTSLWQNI"}, "source": "paper PMC11231609", "key": {"[1]": {"target": "calcitonin receptor-like receptor (human (endogenous in HDLEC)) (UniProt Q16602)", "assay": "proximity ligation; in situ PLA (Duolink) on paraformaldehyde-fixed HDLEC; rabbit anti-CLR serum LN-1436 with a mouse mAb against the partner; isotype IgG controls; 20 cells per group"}, "[2]": {"target": "calcitonin receptor-like receptor (human (endogenous in HDLEC)) (UniProt Q16602)", "assay": "co-IP; IP of endogenous CLR from HDLEC lysate with LN-1436, control IP with preimmune serum; immunoblotting for Nup93 (Fig. S4)"}}, "note": "Results are given in words; binding and its absence hold for the method and conditions named. In cells and extracts the contact can be indirect. Some entries that bind do so weakly or less than the wild type.", "data": [{"molecule": "valosin-containing protein (from UniProt P55072 1-806)", "values": [{"measurement": "binding", "setting": "[1]", "result": "binds"}]}, {"molecule": "cell division control protein 42 (CDC42) binding protein kinase beta (from UniProt Q9Y5S2 1-1711) (enzyme)", "values": [{"measurement": "binding", "setting": "[1]", "result": "binds"}]}, {"molecule": "calcium/calmodulin-dependent protein kinase 2 delta (from UniProt Q13557 1-499) (enzyme)", "values": [{"measurement": "binding", "setting": "[1]", "result": "binds"}]}, {"molecule": "nucleoporin 93 (protein, UniProt Q8N1F7 1-819) MDTEGFGELLQQAEQLAAETEGISELPHVERNLQEIQQAGERLRSRTLTRTSQETADVKASVLLGSRGLDISHISQRLESLSAATTFEPLEPVKDTDIQGFLKNEKDNALLSAIEESRKRTFGMAEEYHRESMLVEWEQVKQRILHTLLASGEDALDFTQESEPSYISDVGPPGRSSLDNIEMAYARQIYIYNEKIVNGHLQPNLVDLCASVAELDDKSISDMWTMVKQMTDVLLTPATDALKNRSSVEVRMEFVRQALAYLEQSYKNYTLVTVFGNLHQAQLGGVPGTYQLVRSFLNIKLPAPLPGLQDGEVEGHPVWALIYYCMRCGDLLAASQVVNRAQHQLGEFKTWFQEYMNSKDRRLSPATENKLRLHYRRALRNNTDPYKRAVYCIIGRCDVTDNQSEVADKTEDYLWLKLNQVCFDDDGTSSPQDRLTLSQFQKQLLEDYGESHFTVNQQPFLYFQVLFLTAQFEAAVAFLFRMERLRCHAVHVALVLFELKLLLKSSGQSAQLLSHEPGDPPCLRRLNFVRLLMLYTRKFESTDPREALQYFYFLRDEKDSQGENMFLRCVSELVIESREFDMILGKLENDGSRKPGVIDKFTSDTKPIINKVASVAENKGLFEEAAKLYDLAKNADKVLELMNKLLSPVVPQISAPQSNKERLKNMALSIAERYRAQGISANKFVDSTFYLLLDLITFFDEYHSGHIDRAFDIIERLKLVPLNQESVEERVAAFRNFSDEIRHNLSEVLLATMNILFTQFKRLKGTSPSSSSRPQRVIEDRDSQLRSQARTLITFAGMIPYRTSGDTNARLVQMEVLMN", "values": [{"measurement": "binding", "setting": "[2]", "result": "binds"}, {"measurement": "binding", "setting": "[1]", "result": "binds"}]}, {"molecule": "iron regulatory protein 1 (protein, UniProt P21399 1-889) MSNPFAHLAEPLDPVQPGKKFFNLNKLEDSRYGRLPFSIRVLLEAAIRNCDEFLVKKQDIENILHWNVTQHKNIEVPFKPARVILQDFTGVPAVVDFAAMRDAVKKLGGDPEKINPVCPADLVIDHSIQVDFNRRADSLQKNQDLEFERNRERFEFLKWGSQAFHNMRIIPPGSGIIHQVNLEYLARVVFDQDGYYYPDSLVGTDSHTTMIDGLGILGWGVGGIEAEAVMLGQPISMVLPQVIGYRLMGKPHPLVTSTDIVLTITKHLRQVGVVGKFVEFFGPGVAQLSIADRATIANMCPEYGATAAFFPVDEVSITYLVQTGRDEEKLKYIKKYLQAVGMFRDFNDPSQDPDFTQVVELDLKTVVPCCSGPKRPQDKVAVSDMKKDFESCLGAKQGFKGFQVAPEHHNDHKTFIYDNTEFTLAHGSVVIAAITSCTNTSNPSVMLGAGLLAKKAVDAGLNVMPYIKTSLSPGSGVVTYYLQESGVMPYLSQLGFDVVGYGCMTCIGNSGPLPEPVVEAITQGDLVAVGVLSGNRNFEGRVHPNTRANYLASPPLVIAYAIAGTIRIDFEKEPLGVNAKGQQVFLKDIWPTRDEIQAVERQYVIPGMFKEVYQKIETVNESWNALATPSDKLFFWNSKSTYIKSPPFFENLTLDLQPPKSIVDAYVLLNLGDSVTTDHISPAGNIARNSPAARYLTNRGLTPREFNSYGSRRGNDAVMARGTFANIRLLNRFLNKQAPQTIHLPSGEILDVFDAAERYQQAGLPLIVLAGKEYGAGSSRDWAAKGPFLLGIKAVLAESYERIHRSNLVGMGVIPLEYLPGENADALGLTGQERYTIIIPENLKPQMKVQVKLDTGKTFQAVMRFDTDVELTYFLNGGILNYMIRKMAK", "values": [{"measurement": "binding", "setting": "[1]", "result": "binds"}]}]}
